Laboratory results from patent publication US4560692A, “4-Piperidino-2-phenylquinolines” (Hoffmann-La Roche Inc., priority 1984, dated 1985).

Molecular target: ^3 H-Diazepam binding, rat brain cortical fragments
Assay: ^3 H-Diazepam binding assay
Settings: standard drugs, inhibition of ^3 H-Diazepam binding by 50%
Experimental: Rat brain cortical fragments are prepared and the binding procedures performed as described by Mohler and Okada (Life Sciences, 20, 2101, 1977) except that Tris buffer is substituted for Krebs buffer. Drugs are assayed in triplicate. Radioactivity is measured by liquid scintillation counting.

CN1C(=O)CN=C(c2ccccc2)c2cc(Cl)ccc21 [Diazepam, reference compound]
IC50: 5 nM
